Measured values as given in patent publication US20240092867A1.
These are yes or no findings as the source states them, for the method shown. Some results given as binding are weak or reduced against the parent protein; the word gives no strength. Blank lines part the entries; values can stand above or below the substance they belong to.

By UniProt entry, the sequences of proteins in these tests, tags left out. Where a name states a change or a piece, a line headed by the entry shows the natural chain unless it says otherwise. Chains listed by the source or under a name are the forms on record and can include a tag or linker. Residues count along the entry.
UniProt P05019, residues 49-118: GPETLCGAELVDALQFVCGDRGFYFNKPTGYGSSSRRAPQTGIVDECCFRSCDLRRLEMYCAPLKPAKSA
UniProt P01127, residues 82-190: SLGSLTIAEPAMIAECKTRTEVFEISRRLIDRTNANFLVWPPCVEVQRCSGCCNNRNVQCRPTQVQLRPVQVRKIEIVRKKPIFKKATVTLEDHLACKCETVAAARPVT
UniProt P09038, residues 143-288: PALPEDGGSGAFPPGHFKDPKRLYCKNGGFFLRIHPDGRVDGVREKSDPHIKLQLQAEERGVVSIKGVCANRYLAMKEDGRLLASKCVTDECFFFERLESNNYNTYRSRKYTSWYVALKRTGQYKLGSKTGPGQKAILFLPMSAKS
vascular endothelial growth factor (VEGF)-A165 (P15692, form named): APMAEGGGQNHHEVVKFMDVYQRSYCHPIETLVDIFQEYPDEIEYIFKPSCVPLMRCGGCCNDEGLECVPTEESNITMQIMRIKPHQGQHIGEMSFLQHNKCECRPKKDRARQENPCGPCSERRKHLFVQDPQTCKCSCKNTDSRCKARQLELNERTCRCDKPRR
recombinant human VEGF-A145 (P15692, form named): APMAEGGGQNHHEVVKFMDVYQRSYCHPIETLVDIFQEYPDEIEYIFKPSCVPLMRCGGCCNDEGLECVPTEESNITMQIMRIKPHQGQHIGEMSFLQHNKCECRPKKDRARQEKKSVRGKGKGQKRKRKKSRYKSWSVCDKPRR
UniProt O76093, residues 28-207: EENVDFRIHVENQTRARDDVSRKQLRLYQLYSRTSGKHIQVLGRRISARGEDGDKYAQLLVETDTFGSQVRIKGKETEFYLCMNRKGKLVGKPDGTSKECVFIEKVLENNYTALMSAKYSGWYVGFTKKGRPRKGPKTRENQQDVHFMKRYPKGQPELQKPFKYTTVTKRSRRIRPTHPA
CXCL-12γ (P48061, form named): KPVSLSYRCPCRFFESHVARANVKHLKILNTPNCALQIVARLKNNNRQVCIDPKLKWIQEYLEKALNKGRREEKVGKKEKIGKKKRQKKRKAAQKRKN
placental growth factor (PlGF)-2 (P49763, form named): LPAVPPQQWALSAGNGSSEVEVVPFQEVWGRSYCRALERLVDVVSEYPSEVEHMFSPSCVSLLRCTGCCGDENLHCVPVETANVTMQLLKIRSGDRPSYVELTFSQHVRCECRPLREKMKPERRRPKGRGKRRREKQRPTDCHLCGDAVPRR
UniProt P04275: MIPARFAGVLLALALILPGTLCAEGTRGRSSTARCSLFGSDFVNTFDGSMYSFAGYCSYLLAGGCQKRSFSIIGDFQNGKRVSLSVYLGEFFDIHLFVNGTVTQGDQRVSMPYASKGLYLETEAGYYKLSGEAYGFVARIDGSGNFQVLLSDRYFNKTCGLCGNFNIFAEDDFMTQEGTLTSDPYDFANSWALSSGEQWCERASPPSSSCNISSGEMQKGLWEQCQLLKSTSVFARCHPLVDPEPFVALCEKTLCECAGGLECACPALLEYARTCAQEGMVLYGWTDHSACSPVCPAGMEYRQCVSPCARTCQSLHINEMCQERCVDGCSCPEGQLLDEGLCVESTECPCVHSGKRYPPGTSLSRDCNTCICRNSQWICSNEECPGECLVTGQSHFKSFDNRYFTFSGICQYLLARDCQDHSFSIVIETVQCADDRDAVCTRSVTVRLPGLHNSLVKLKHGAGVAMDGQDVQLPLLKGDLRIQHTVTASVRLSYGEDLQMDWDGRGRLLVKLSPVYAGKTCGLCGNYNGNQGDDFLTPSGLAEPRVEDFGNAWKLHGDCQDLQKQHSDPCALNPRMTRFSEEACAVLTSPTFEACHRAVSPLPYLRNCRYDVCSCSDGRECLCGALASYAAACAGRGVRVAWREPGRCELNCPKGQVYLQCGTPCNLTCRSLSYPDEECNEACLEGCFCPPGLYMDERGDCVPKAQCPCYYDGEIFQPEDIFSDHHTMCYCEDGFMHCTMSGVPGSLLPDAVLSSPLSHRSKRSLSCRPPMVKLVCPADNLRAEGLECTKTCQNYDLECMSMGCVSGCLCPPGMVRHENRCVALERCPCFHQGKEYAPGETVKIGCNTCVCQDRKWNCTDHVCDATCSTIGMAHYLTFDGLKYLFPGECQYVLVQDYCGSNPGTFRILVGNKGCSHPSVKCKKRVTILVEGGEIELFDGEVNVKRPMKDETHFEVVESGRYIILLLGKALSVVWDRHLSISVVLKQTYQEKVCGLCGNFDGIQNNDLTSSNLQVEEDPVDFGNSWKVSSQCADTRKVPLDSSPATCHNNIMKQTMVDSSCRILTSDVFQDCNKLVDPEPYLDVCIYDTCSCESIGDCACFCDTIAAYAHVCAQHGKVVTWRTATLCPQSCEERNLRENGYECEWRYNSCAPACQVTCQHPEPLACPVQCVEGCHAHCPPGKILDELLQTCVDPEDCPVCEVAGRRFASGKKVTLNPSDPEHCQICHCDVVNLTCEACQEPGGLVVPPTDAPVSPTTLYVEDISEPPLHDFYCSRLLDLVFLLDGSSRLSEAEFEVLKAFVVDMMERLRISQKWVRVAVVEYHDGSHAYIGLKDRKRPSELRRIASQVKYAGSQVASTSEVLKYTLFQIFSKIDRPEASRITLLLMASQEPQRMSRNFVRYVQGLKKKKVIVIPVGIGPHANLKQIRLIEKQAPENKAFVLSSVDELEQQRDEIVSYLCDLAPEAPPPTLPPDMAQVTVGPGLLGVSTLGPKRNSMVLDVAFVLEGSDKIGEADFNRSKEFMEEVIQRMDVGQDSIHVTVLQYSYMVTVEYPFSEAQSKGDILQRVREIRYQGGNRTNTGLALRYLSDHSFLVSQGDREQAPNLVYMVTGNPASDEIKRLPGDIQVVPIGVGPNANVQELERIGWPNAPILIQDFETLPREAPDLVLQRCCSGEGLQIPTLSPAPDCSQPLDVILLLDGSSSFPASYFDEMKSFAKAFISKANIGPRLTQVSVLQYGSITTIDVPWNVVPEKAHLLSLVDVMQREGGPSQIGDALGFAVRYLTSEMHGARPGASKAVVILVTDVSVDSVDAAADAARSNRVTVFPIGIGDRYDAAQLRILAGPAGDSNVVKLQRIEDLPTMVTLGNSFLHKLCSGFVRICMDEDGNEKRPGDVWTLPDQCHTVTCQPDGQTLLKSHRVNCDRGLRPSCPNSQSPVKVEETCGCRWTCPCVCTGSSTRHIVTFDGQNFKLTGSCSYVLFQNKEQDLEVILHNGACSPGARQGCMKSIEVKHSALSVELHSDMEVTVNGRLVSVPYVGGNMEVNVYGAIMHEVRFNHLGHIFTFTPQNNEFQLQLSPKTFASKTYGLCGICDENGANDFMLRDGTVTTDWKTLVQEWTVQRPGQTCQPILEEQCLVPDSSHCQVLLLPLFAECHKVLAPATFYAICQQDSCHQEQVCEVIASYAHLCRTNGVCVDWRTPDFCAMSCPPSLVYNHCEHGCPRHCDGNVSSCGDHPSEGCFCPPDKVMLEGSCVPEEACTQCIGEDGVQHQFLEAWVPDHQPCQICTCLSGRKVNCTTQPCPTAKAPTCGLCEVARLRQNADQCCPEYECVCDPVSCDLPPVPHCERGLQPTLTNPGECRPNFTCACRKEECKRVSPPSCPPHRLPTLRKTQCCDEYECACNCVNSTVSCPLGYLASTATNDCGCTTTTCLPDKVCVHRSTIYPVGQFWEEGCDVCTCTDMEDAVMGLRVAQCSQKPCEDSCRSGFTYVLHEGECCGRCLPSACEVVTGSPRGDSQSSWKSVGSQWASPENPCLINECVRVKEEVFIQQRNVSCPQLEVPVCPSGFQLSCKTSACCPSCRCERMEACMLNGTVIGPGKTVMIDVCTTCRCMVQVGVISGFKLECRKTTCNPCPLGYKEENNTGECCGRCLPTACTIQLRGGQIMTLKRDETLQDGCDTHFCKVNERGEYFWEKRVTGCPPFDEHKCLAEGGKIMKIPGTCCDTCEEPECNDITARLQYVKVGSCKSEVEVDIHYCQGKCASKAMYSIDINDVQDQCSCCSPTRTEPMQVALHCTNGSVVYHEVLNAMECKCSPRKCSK
vWF in serum of a type 2B vWD patient carrying the R1341Q mutation (P04275, form named): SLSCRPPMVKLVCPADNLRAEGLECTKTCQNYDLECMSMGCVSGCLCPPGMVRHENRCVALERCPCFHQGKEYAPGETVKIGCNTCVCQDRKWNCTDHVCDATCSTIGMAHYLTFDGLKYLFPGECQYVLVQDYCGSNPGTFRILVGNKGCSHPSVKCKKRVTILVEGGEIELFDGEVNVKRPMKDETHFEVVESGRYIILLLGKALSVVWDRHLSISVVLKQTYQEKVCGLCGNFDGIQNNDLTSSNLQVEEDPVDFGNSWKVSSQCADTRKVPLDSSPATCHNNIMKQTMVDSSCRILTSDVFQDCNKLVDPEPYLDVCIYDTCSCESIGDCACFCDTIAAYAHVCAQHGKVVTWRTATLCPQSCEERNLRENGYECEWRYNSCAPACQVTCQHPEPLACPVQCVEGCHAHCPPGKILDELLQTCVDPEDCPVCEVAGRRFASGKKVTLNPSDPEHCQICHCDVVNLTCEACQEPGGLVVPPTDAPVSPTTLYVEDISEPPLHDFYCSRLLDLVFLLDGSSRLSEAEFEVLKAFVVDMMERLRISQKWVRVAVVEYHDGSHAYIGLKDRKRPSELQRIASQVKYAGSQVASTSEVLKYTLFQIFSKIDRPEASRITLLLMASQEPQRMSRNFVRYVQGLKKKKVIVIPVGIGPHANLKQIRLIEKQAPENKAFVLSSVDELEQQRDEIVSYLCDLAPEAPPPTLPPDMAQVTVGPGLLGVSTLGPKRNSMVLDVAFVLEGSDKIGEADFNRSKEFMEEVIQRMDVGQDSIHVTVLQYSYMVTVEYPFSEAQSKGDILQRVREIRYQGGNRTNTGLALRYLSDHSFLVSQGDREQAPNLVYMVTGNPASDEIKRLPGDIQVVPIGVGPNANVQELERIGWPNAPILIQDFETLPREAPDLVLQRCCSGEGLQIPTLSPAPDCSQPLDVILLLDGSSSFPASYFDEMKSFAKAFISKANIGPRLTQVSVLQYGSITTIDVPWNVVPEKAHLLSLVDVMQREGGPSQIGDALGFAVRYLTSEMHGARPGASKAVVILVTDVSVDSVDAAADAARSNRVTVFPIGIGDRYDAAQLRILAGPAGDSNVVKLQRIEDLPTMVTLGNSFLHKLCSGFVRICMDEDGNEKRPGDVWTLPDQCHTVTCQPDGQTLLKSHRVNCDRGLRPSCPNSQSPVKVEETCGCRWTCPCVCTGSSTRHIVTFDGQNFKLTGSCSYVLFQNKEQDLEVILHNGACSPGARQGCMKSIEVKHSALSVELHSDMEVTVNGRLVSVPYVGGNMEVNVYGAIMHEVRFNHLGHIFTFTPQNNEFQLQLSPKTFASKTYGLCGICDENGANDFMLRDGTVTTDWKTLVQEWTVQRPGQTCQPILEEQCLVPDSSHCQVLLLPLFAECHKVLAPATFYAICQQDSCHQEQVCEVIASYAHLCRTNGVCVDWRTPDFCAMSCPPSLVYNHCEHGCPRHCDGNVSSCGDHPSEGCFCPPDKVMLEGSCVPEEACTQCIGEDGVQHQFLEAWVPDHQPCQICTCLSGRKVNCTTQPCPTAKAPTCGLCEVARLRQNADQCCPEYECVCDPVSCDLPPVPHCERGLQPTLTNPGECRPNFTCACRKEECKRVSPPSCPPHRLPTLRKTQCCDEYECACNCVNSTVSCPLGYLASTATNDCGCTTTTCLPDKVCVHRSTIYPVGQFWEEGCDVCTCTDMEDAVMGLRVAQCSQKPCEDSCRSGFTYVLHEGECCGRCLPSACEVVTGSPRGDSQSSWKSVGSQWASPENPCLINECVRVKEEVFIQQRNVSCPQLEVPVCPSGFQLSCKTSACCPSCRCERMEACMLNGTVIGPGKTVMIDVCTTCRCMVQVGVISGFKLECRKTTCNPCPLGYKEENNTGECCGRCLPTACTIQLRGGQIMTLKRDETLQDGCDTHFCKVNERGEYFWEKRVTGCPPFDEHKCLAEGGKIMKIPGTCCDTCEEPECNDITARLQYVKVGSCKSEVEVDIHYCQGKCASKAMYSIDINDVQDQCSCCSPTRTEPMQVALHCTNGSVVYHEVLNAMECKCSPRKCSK

What was measured:
[1] = biological target: insulin-like growth factor (IGF)-1 (UniProt P05019); experiment: ELISA, GF coated, laminin 10 nM
[2] = biological target: platelet-derived growth factor (PDGF)-BB (human) (UniProt P01127); experiment: sandwich ELISA on serum, anti-vWF capture, anti-GF detection (GF of the serum)
[3] = biological target: fibroblast growth factor (FGF)-2 (human) (UniProt P09038); experiment: as above
[4] = biological target: vascular endothelial growth factor (VEGF)-A165 (human) (UniProt P15692); experiment: as above
[5] = biological target: platelet-derived growth factor (PDGF)-BB (human) (UniProt P01127); experiment: ELISA, FL-vWF coated, GF 1 µg/mL
[6] = biological target: fibroblast growth factor (FGF)-2 (human) (UniProt P09038); experiment: ELISA, FL-vWF coated, GF 1 µg/mL
[7] = biological target: vascular endothelial growth factor (VEGF)-A165 (human) (UniProt P15692); experiment: ELISA, FL-vWF coated, GF 1 µg/mL
[8] = biological target: recombinant human VEGF-A145 (human) (UniProt P15692); experiment: ELISA, vWF coated 50 nM, VEGF-A 1 µg/mL
[9] = biological target: vascular endothelial growth factor (VEGF)-A165 (human) (UniProt P15692); experiment: ELISA, vWF coated 50 nM, VEGF-A 1 µg/mL
[10] = biological target: recombinant human VEGF-A145 (human) (UniProt P15692); experiment: ELISA; vWF forms coated at 50 nM, 1 µg/mL VEGF-A145 in solution, detected with anti-VEGF-A antibody [panel C]
[11] = biological target: platelet-derived growth factor (PDGF)-BB (human) (UniProt P01127); experiment: ELISA, GF coated, laminin 10 nM
[12] = biological target: T1, fibroblast growth factor (FGF)-10 (UniProt O15520); experiment: ELISA, GF coated, laminin 10 nM
T1 sequence (looked up): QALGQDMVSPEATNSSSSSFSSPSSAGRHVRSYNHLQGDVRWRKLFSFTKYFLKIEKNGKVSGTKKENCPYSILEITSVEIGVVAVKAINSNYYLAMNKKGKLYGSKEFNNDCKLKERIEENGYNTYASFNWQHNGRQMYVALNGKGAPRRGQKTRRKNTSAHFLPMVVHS

[13] = biological target: fibroblast growth factor (FGF)-18 (UniProt O76093); experiment: ELISA, GF coated, laminin 10 nM
[14] = biological target: CXCL-12γ (human) (UniProt P48061); experiment: ELISA, GF coated, laminin 10 nM
[15] = biological target: fibroblast growth factor (FGF)-2 (human) (UniProt P09038); experiment: ELISA, GF coated, laminin 10 nM
[16] = biological target: T2, brain-derived neurotrophic factor (BDNF) (UniProt P23560); experiment: ELISA, GF coated, laminin 10 nM
T2 sequence (looked up): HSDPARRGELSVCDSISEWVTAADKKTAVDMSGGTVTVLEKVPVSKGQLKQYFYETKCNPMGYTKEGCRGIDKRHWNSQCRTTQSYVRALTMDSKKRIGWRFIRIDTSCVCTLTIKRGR

[17] = biological target: T3, bone morphogenetic protein (BMP)-3 (UniProt P12645); experiment: ELISA, GF coated, laminin 10 nM
T3 sequence (looked up): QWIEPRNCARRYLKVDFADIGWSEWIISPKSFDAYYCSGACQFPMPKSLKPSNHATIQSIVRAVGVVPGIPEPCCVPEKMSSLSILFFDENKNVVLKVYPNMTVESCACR

[18] = biological target: T4, neurotrophin (NT)-3 (UniProt P20783); experiment: ELISA, GF coated, laminin 10 nM
T4 sequence (looked up): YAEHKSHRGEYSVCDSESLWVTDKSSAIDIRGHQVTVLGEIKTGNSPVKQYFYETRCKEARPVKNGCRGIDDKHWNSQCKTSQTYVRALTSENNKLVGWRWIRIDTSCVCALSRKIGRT

[19] = biological target: T5, fibroblast growth factor (FGF)-7 (UniProt P21781); experiment: ELISA, GF coated, laminin 10 nM
T5 sequence (looked up): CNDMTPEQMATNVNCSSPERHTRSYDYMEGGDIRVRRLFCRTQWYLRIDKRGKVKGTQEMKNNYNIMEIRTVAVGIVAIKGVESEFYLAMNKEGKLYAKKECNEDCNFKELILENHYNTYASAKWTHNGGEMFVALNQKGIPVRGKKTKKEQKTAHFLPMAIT

[20] = biological target: vascular endothelial growth factor (VEGF)-A165 (human) (UniProt P15692); experiment: ELISA, GF coated, laminin 10 nM
[21] = biological target: T6, bone morphogenetic protein (BMP)-2 (UniProt P12643); experiment: ELISA, GF coated, laminin 10 nM
T6 sequence (looked up): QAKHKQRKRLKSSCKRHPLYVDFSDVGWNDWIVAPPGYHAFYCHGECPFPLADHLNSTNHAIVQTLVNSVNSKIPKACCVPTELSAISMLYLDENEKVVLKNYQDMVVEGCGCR

[22] = biological target: placental growth factor (PlGF)-2 (human) (UniProt P49763); experiment: ELISA, GF coated, laminin 10 nM
[23] = biological target: VEGF-A in human serum (human) (UniProt P15692); experiment: sandwich ELISA (anti-vWF capture, anti-VEGF-A detection) and immunoprecipitation with Western blot on human serum
[24] = biological target: placental growth factor (PlGF)-2 (human) (UniProt P49763); experiment: ELISA; plate coated with 10 µg/mL laminin, 1 µg/mL PlGF-2 in solution without or with 10 µM heparin, bound GF detected with antibody [panel B]
[25] = biological target: fibroblast growth factor (FGF)-2 (human) (UniProt P09038); experiment: ELISA, laminin coated, GF 1 µg/mL, without or with 10 µM heparin
[26] = biological target: vascular endothelial growth factor (VEGF)-A165 (human) (UniProt P15692); experiment: as above
[27] = biological target: placental growth factor (PlGF)-2 (human) (UniProt P49763); experiment: as above
[28] = biological target: fibroblast growth factor (FGF)-2 (human) (UniProt P09038); experiment: ELISA; plate coated with 10 µg/mL laminin, 1 µg/mL FGF-2 in solution without or with 10 µM heparin, bound GF detected with antibody [panel C]
[29] = biological target: vascular endothelial growth factor (VEGF)-A165 (human) (UniProt P15692); experiment: ELISA; plate coated with 10 µg/mL laminin, 1 µg/mL VEGF-A165 in solution without or with 10 µM heparin, bound GF detected with antibody [panel A]

binding [2]: binds
binding [3]: binds
binding [4]: binds
Substance: vWF in serum of a type 2B vWD patient carrying the R1341Q mutation (from UniProt P04275 764-2813)

binding [1]: no binding (tested: A450 0.1)
Substance: laminin-211 (from UniProt P24043 23-3122; P07942 22-1786; P11047 34-1609)

binding [5]: binds
binding [6]: binds
binding [7]: binds
Substance: full-length recombinant human vWF (WT) (from UniProt P04275 764-2813)

binding [8]: binds
binding [9]: binds
binding [10]: binds
Substance: pro-peptide containing recombinant vWF (from UniProt P04275 23-2813)

binding [1]: no binding (tested: A450 0.1)
Substance: laminin-111 (from UniProt P25391 18-3075; P07942 22-1786; P11047 34-1609)

Continued, substance first:

Substance: laminin-421 (from UniProt Q16363 25-1823; P55268 33-1798; P11047 34-1609)
binding [1]: no binding (tested: A450 0.1)

Substance: laminin-332 (from UniProt Q16787 28-1724; Q13751 18-1172; Q13753 22-1193)
binding [11]: binds
binding [12]: binds
binding [13]: binds
binding [1]: no binding (tested: A450 0.1)
binding [14]: binds
binding [15]: binds
binding [16]: binds
binding [17]: binds
binding [18]: binds
binding [19]: binds
binding [20]: binds
binding [21]: binds
binding [22]: binds

Substance: vWF in human serum from healthy donors (from UniProt P04275 764-2813)
binding [23]: binds

Substance: laminin-511 (from UniProt O15230 36-3695; P07942 22-1786; P11047 34-1609)
binding [1]: no binding (tested: A450 0.1)

Substance: laminin-411 (from UniProt Q16363 25-1823; P07942 22-1786; P11047 34-1609)
binding [1]: no binding (tested: A450 0.1)

Substance: laminin-221 (from UniProt P24043 23-3122; P55268 33-1798; P11047 34-1609)
binding [24]: binds
binding [25]: binds
binding [26]: binds
binding [27]: binds
binding [28]: binds
binding [29]: binds

Substance: laminin-521 (from UniProt O15230 36-3695; P55268 33-1798; P11047 34-1609)
binding [1]: no binding (tested: A450 0.1)
